Test results taken from PMC8133776.
Like-named read-outs stand apart in the source and are kept apart here. No constants are given. Whether binding was seen depends on the method and setting. Binding seen in cells or lysates may run through a third protein. Here binding means that the protein was enriched with, or labelled near, the bait; the list need not be complete. Values belong to the molecule of their own block, whether it stands above or below them.

Amino acid sequences for entries named in this document (tags omitted). A change or cut given only in a name is not applied to a line headed by its entry.
UniProt Q9W4W2: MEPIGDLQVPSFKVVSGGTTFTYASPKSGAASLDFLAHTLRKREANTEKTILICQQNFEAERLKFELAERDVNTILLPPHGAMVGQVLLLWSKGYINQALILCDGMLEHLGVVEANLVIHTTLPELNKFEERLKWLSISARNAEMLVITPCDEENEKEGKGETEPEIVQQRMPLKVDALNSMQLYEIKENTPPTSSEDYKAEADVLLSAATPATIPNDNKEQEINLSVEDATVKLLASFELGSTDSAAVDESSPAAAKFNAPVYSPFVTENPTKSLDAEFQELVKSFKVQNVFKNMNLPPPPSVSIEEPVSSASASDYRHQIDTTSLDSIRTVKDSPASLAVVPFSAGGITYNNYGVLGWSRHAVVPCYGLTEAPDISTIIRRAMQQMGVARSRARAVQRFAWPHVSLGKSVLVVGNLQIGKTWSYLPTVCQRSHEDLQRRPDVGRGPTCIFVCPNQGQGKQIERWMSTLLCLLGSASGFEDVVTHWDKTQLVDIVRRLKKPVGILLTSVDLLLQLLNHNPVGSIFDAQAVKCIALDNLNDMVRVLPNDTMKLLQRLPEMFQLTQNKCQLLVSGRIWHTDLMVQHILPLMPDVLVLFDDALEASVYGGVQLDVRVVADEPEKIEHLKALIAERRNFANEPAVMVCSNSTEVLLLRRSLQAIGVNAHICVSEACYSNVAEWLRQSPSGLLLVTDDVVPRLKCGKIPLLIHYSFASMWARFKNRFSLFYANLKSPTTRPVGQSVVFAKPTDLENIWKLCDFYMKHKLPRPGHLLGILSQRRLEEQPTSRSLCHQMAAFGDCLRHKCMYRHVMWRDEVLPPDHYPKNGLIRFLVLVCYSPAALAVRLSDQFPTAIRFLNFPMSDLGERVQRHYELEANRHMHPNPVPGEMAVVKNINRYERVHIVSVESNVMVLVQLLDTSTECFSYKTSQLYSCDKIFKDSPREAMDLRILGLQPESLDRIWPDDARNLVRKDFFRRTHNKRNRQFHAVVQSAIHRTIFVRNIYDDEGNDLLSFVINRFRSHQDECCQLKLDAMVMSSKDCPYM
UniProt Q9W1X4: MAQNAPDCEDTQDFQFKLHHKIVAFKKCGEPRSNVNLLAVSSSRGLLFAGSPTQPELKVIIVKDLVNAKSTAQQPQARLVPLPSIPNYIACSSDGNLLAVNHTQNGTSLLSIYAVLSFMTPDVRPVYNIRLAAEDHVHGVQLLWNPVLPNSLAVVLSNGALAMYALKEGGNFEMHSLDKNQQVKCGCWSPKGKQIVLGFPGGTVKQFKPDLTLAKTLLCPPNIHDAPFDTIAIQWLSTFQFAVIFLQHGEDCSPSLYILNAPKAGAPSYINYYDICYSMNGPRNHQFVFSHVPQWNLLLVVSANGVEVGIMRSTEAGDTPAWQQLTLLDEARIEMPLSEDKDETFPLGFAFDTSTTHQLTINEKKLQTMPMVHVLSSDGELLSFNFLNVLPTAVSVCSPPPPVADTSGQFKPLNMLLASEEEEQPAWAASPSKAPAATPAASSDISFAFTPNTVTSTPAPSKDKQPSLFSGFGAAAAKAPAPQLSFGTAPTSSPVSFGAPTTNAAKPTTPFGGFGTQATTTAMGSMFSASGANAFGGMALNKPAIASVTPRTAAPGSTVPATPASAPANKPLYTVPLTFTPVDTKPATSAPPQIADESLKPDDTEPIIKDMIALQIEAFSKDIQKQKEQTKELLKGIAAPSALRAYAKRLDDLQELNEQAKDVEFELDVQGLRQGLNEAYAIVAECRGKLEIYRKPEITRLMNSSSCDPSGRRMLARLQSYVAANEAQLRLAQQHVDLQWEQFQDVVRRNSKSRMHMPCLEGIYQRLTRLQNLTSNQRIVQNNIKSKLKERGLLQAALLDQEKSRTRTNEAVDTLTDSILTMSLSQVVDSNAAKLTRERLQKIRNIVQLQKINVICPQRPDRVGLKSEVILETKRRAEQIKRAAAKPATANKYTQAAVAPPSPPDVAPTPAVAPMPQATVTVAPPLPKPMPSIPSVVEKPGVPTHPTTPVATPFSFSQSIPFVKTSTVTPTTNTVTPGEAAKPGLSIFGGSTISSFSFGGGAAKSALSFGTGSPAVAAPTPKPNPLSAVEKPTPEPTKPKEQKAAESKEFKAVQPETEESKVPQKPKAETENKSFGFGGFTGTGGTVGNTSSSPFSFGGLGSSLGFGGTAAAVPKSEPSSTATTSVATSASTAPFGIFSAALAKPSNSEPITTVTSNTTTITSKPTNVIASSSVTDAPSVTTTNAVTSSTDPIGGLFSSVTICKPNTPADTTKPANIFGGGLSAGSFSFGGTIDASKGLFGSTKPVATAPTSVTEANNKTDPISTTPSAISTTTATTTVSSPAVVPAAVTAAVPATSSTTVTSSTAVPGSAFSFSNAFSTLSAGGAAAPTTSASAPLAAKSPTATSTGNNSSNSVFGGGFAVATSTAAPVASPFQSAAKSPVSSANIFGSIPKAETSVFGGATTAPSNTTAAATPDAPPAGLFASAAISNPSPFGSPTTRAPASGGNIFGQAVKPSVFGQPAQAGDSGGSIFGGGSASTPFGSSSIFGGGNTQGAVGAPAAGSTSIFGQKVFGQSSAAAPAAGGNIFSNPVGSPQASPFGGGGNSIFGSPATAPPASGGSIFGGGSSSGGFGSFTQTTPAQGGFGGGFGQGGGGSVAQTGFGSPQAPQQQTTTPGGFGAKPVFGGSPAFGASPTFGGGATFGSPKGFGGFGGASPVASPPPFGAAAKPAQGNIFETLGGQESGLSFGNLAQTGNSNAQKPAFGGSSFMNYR

Assays:
Experiment in all cases: proximity labelling; HA-BASU fusion expressed in OSCs, 200 uM biotin for 1 hr, streptavidin pulldown of biotinylated proteins, TMT quantitative mass spectrometry against HA-ZsGreen control
[1] = biological target: BASU-Yb (Drosophila melanogaster) (UniProt Q9W4W2)
[2] = biological target: T1, BASU-Nup58 (Drosophila melanogaster) (UniProt Q9VDV3)
T1 sequence: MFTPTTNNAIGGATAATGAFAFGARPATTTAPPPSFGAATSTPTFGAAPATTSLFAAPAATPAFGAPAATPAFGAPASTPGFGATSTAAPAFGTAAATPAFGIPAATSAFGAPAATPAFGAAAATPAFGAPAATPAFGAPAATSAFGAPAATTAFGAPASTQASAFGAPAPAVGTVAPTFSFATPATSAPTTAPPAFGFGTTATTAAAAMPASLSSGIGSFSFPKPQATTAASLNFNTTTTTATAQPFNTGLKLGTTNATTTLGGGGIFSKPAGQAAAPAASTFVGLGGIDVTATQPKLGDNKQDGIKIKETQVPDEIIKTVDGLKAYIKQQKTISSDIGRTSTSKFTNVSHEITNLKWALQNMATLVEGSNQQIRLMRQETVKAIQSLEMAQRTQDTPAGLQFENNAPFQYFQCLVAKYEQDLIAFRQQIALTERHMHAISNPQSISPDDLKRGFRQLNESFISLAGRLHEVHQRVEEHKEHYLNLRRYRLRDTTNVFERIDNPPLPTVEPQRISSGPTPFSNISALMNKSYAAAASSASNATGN

[3] = biological target: BASU-Yb (Drosophila melanogaster) (UniProt Q9W4W2); remark: listed apart in the source
[4] = biological target: T2, BASU-Nup54 (Drosophila melanogaster) (UniProt Q9V6B9)
T2 sequence: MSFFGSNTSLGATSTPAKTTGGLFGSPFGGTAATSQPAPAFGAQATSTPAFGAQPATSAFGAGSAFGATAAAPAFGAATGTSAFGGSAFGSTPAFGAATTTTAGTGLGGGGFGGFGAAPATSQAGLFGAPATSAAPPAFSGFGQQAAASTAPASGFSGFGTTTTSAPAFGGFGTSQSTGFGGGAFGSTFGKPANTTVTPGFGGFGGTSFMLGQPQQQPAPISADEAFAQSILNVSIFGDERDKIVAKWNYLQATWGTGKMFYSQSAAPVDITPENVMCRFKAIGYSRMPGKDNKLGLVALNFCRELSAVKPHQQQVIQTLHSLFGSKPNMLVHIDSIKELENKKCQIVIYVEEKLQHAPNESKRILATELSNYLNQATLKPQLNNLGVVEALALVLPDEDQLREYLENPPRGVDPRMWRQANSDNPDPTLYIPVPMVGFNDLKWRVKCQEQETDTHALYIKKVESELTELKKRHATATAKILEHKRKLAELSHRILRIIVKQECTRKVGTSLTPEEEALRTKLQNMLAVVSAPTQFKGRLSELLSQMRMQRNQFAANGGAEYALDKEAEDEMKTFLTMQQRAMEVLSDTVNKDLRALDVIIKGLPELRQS

binding [1]: binds
Molecule: Nup214 (from UniProt Q9W1X4 1-1711)

binding [2]: binds
B1: Nup54 (endogenous) (protein, UniProt Q9V6B9 1-610)
chain: T2 sequence

binding [3]: binds
B2: Armi (protein, UniProt Q6J5K9 1-1188)
chain: MFTYVSKFFTNPDRNREDILESLDRENSFLDQKLMEEKMDQQLKANPNEINGVLSNKIAELTHGLSEMDVSKESSCTARKGVITSLDGDRGVIDKDVLFETKVAEDIILDLHVGCVVEYLTFTTGEAMRVVKVKSILEHSWEDTSQKEIEKAVDNLKNEKPTFFNTETRSVLGLISQRLASSIDVETEYGQLTVELDNIEMNFIPTNGDRVRLECNIQLDDGFVDKQGEILEVTKLFPTRIQEGEKCIVERVYVHMVVLGPETYILKTDLPTGTDLHLGDIVLADLIECQYSKFTRRAIKITPLEKNFGATKLTQQSSMGSSGSGKAVTVTGVNRFITAELWQKESVSLKLTNNLNRTLRLESITVCNDSESQLSVVSPLESKEISSGSEITVTFEIHTQFLGEAIEKYVLNFDLLKVRRVFTVIVCKTKEEVAEAEKRMIAAEALMAPGRNSQERSRFYANQVWCNKVDVIPGQQIVTKRRFVALRLGCFEVPKELRQICLTSERRQEMIKAIEQHYSFLTEPLSIKTYMHRFRLLLHLEEIECFVNFRNYDRDRAHFLRDGEFLTLQIENLAERRPSLVIGDTLRVINPWSDPDSQTTKSYEGIIHKVLFDRILLKFHSSFQEKYNGEDYRLEFYFSRYSFRKQHHAISKIVGVMGEDFLFPSKVTKRENPQLDVYMKDDDMYLYDSKLEWYNQSLNSIQKRAVFNILRGEAENIPYVLFGPPGSGKTMTLIETLLQLVRNLPGARILVGTPSNSSADLVTKRLIDSKALLQGDFIRLVSYNQVEKDLIPPEIMSYCATSDVGAVGSCEDKMMVTESGLKLRCQAKFIGTHRITISTCTTLGNFLQLGFPAGHFTHVLFDEAGQCTEPETMVPIVMLTKKRSQVVLSGDPRQLQSIVTSRIASKMGFSISFLERLLERSPYRKDLQRFPESSGYNPLVLTKLLYNYRALPSIMSIYSRLFYDDELIPVLSEKDSRESRLLSKLRCVFESEKDIPQAHGTFFYGIIGENRQNNDSPSWFNPQEVREVFLMTIALYRANVTADQIGIITPYQKQVKMLRSMFIGTDVVMPKIGSVEEFQGQERDIILISTVRSSEEILRMDARFSLGFVRCSKRLNVAVSRARAMMIIFGNPHLLAVDECWRQLILFCVKNNAYFGCDLPQMVINQKDEVPVCLETFVPSLNTTDDLN

binding [3]: binds
B3: Piwi (protein, UniProt Q9VKM1 1-843)
chain: MADDQGRGRRRPLNEDDSSTSRGSGDGPRVKVFRGSSSGDPRADPRIEASRERRALEEAPRREGGPTERKPWGDQYDYLNTRPAELVSKKGTDGVPVMLQTNFFRLKTKPEWRIVHYHVEFEPSIENPRVRMGVLSNHANLLGSGYLFDGLQLFTTRKFEQEITVLSGKSKLDIEYKISIKFVGFISCAEPRFLQVLNLILRRSMKGLNLELVGRNLFDPRAKIEIREFKMELWPGYETSIRQHEKDILLGTEITHKVMRTETIYDIMRRCSHNPARHQDEVRVNVLDLIVLTDYNNRTYRINDVDFGQTPKSTFSCKGRDISFVEYYLTKYNIRIRDHNQPLLISKNRDKALKTNASELVVLIPELCRVTGLNAEMRSNFQLMRAMSSYTRMNPKQRTDRLRAFNHRLQNTPESVKVLRDWNMELDKNVTEVQGRIIGQQNIVFHNGKVPAGENADWQRHFRDQRMLTTPSDGLDRWAVIAPQRNSHELRTLLDSLYRAASGMGLRIRSPQEFIIYDDRTGTYVRAMDDCVRSDPKLILCLVPNDNAERYSSIKKRGYVDRAVPTQVVTLKTTKNRSLMSIATKIAIQLNCKLGYTPWMIELPLSGLMTIGFDIAKSTRDRKRAYGALIASMDLQQNSTYFSTVTECSAFDVLANTLWPMIAKALRQYQHEHRKLPSRIVFYRDGVSSGSLKQLFEFEVKDIIEKLKTEYARVQLSPPQLAYIVVTRSMNTRFFLNGQNPPPGTIVDDVITLPERYDFYLVSQQVRQGTVSPTSYNVLYSSMGLSPEKMQKLTYKMCHLYYNWSGTTRVPAVCQYAKKLATLVGTNLHSIPQNALEKKFYYL

binding [4]: binds | binding [2]: binds
B4: Nup93-1 (protein, UniProt Q9XZ06 1-823)
chain: MDLMELLKQAQRLTNETNTDTEVPGVERTMSQVLQATKEFHSRVTQMGTNDLQAHILLGSKGVDLPKLTQKLESLSARQTFEPIDPVTETNVQAYLKNERENAILSVIDETNRSIFKSVERQKWRCIYSEWGEEKEALLNALVGPNQQDFPDVQFQIVPTAMADEPTPYSQLNGHEQMYAEQIAIHNQSIILGRRPNLLSTLAHVVQDSFNDESVAEMWNVLQFMTALPPVSSTIDPIKNRQTSPQFVEQARTYLERRYRTYMRKFIVANLAKARRGGIPSVYHMVRSYVGVTLQGQRALYGLHDVNNGQPLWPHVYYSLRSGDMDAAALYLKESGTCPDLLTLLTLRKNGDRDNLMVKLEGQLKLEYNSRLRACTDPYKKAVYVVLLACDPHFTHVELMRSIDDFLWMQLSILRRSDQSDSNTEQLTFSGLQSLILEKYGENYFNAREKAALYFQVLTLTGQFEAAIEFLARTEKNRTHAIHMAIALNEISMLGTPRSVEQSLLSSDPDDPKPMKRLNLVRLIVMYTKCFERTDTTQALHYYYLLRNFKSENGRGNVMLTCVCDLLVEKCDDEMLELIFGTEDKKNGLRYGGIYAEFQIHECDKYSLAEMVGDELSKRGDYELAIELYFIGGQLDKALRLVNSLLAQVVHQPTQNGSVRNRLGDIINRLDAALVVRKSDVEVQVVVTYTVLTKVMKFFDHYHEGALRSALEILTNNHLIPASSLEVDECVTNIKRMGPEVIKVLPDILLASMDIVYQEYVKLMDSNETASGFFDESKCVNKEPAVKHLRDRAKAFTNMAASVPYRMPSTTNQRLVQLEILMH

binding [4]: binds | binding [2]: binds
B5: Nup62 (protein, UniProt Q7JXF5 1-394)
chain: MVFQLPTTTAAPTGGATSSFSFGLSTGTPAAAPASGAATTAPATKTTFSFGTPAPTAGIGGGDADNSKAQAPPAFGFGLGSGTASAPLTLGTQAAANPASTTSATATGTSAAPPAFGGFTAQPAASVVPTIATSAPNTAATTTGLLGGSGLGAPKTTAAASTTLTAAPSAIASTQGAAPAPTLSTGGAFANLTTETKTTDSSAVSTASQLSYHQLEEHINKWTLEFEEQEKVFTEQATQINAWDKLLISNNGKIVELNDAVKKVKTDQQVLDQELEFIATQQKELEDSLGPLEKEFVNLPRVDMERSQTYLMVENLDTQLKQMSEDLKEIIDNLNEANKGQDTTDPIIQIGKILNAHMNSLQWIESQSTNISKKLEDIGKIQDSQKRDIFRAPF

binding [4]: binds
B6: Nup58 (endogenous) (protein, UniProt Q9VDV3 1-546)
chain: T1 sequence
